Paper PMC13287468, “Newton’s cradle-like allosteric mechanism explains regulatory RsmE RNA binding”
For at least one entry, the source does not settle the construct or the ends of the probe. A weaker result is weaker than the reference pair of the same experiment. Protein sequences can lack the tags named with them. The direction of at least one scale is not stated here.

Biological target: T1, RsmE dimer (P64W, C-terminal His6) (UniProt P0DPC3)
T1 sequence (looked up): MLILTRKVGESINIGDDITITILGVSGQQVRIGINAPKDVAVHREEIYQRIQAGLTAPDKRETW
Assay: ITC
Conditions: 30 mM NaCl, 50 mM potassium phosphate pH 7.2, ITC at 298 K (NaCl varied in Supp. Fig. 8), RNA titrated into 10 uM RsmE monomer, sequential two-site model, recombinant protein, residues 1-64, protein details: C-terminal 6xHis

In the case of GGAUCAAGGACGAUCC [4bpSL2 RNA], the binding result (first site, affinity substantially reduced vs SL2) is reported as “binds more weakly” and the binding signal (Kd2/Kd1 ratio) (second site vs first site) is reported as 3.
GGGCCAUCAAGGACGAUGGUCC [SL2 RNA (RsmZ)] was tested, and the binding result (increased NaCl, first-site affinity reduced proportionally more than second) was “binds more weakly” and the binding signal (Kd2/Kd1 ratio) (second site vs first site (10- to 30-fold reduced)) was 20.
GGGCUUCACGGAUGAAGCCC [hcnA SD RNA] was tested, and the Kd (second site, SL2 RNA already bound at the first site) was 300 nM.
